Experimental data from the M2OR odorant receptor database.
The list shows a part of the results, in another mix than the full data. The calls were merged from several studies; some rest on single wells. This is one part of the list.

Key:
Conditions in all cases: stereoisomer not certain
OR5H1 = test system: T1, OR5H1
T1 sequence (whole entry): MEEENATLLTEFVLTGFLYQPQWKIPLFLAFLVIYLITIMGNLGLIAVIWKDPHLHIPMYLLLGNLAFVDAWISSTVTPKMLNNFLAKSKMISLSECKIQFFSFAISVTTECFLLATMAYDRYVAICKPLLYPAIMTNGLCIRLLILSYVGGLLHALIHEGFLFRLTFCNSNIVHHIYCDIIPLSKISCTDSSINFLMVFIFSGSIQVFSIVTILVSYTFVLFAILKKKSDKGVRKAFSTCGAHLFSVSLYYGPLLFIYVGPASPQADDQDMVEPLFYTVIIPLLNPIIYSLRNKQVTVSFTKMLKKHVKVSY
In short: (§1)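 Values were gathered from published papers (main text and supplementary material), with extra details requested from the original authors when needed, and checked for typos and inconsistencies. Each receptor–molecule pair is called responsive (active) if the original authors judged the measured signal statistically different from baseline, and non-responsive (inactive) otherwise. Assay methods varied by source, often transient mammalian cell-line luciferase assays. Recorded details include cell line, G-protein, co-transfected protein and tags.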

OR5H2 [1] = test system: T2, OR5H2
T2 sequence (whole entry): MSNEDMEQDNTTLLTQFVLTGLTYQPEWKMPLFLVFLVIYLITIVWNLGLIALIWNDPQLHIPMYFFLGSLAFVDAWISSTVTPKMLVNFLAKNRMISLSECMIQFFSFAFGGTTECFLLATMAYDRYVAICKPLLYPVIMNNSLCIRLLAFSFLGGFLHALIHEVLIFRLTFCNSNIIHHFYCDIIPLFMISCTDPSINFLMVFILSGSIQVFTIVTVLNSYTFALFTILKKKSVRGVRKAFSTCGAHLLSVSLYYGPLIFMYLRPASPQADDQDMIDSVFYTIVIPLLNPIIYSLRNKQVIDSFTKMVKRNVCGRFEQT
In short: as §1

OR5H2 [2] = test system: T3, OR5H2; remark: listed apart in the source
T3 sequence (whole entry): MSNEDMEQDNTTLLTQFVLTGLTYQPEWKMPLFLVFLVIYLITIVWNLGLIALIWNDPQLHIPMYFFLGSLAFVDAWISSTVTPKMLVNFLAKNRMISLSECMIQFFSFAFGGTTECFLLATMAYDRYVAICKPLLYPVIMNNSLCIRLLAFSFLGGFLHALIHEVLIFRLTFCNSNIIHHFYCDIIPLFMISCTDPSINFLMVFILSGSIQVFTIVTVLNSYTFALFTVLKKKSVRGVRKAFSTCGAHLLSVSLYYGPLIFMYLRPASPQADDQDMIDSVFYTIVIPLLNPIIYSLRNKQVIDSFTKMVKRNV
In short: as §1

OR5H6 [3] = test system: T4, OR5H6
T4 sequence (whole entry): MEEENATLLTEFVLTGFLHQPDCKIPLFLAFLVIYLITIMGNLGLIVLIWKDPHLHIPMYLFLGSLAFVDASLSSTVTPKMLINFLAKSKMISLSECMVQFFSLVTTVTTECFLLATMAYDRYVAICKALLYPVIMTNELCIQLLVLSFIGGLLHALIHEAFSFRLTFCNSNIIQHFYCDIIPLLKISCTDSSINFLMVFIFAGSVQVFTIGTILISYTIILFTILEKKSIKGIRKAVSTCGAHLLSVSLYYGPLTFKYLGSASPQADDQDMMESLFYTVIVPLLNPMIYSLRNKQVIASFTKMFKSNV
In short: as §1

OR5H6 [4] = test system: T5, OR5H6; remark: listed apart in the source
T5 sequence (whole entry): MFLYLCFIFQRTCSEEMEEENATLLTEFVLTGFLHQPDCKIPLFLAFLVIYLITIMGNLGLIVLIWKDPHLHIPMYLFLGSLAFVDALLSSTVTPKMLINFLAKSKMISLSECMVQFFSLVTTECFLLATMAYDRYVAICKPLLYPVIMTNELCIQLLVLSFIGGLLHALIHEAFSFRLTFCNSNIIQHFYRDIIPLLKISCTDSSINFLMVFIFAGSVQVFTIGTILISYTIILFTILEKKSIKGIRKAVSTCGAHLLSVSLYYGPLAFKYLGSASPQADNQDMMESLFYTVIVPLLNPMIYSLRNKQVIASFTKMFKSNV
In short: as §1

OR5I1 (Homo sapiens) = molecular target: T6, OR5I1 (Homo sapiens) (UniProt Q13606)
T6 sequence (whole entry): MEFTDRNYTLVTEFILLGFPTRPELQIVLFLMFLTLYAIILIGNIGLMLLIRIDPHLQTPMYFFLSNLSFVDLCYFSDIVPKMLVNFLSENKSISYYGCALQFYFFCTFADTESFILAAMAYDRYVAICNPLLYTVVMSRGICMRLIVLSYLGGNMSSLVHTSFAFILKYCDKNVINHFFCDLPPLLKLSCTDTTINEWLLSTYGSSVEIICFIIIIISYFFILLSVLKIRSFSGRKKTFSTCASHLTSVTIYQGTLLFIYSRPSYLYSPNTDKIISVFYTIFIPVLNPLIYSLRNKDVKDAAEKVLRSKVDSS
In short: as §1

OR5J2 (Homo sapiens) = molecular target: T7, OR5J2 (Homo sapiens) (UniProt Q8NH18)
T7 sequence (whole entry): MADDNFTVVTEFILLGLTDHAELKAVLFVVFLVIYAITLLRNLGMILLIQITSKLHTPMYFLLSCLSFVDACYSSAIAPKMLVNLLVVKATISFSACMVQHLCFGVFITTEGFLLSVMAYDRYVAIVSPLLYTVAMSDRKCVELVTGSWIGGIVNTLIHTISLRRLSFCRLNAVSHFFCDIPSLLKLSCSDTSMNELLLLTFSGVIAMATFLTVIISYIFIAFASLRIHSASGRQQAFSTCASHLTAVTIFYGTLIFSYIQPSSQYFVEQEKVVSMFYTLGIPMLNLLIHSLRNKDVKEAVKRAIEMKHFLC
In short: as §1

SMILES: CC1COCc2cc3c(cc21)C(C)(C)C(C)C3(C)C (configuration not stated)
- odorant receptor agonist call (OR5H1): active
- odorant receptor agonist call (OR5H2 [1]): active
- odorant receptor agonist call (OR5H2 [2]): active
- odorant receptor agonist call (OR5H6 [3]): active
- odorant receptor agonist call (OR5H6 [4]): active
- odorant receptor agonist call (OR5I1 (Homo sapiens)): inactive
- odorant receptor agonist call (OR5J2 (Homo sapiens)): inactive

SMILES: CC(=O)OC(C)(C)C1CC=C(C)CC1 (configuration not stated)
- odorant receptor agonist call (OR5H1): inactive
- odorant receptor agonist call (OR5H2 [1]): inactive
- odorant receptor agonist call (OR5H2 [2]): inactive
- odorant receptor agonist call (OR5H6 [3]): inactive
- odorant receptor agonist call (OR5H6 [4]): inactive
- odorant receptor agonist call (OR5I1 (Homo sapiens)): inactive
- odorant receptor agonist call (OR5J2 (Homo sapiens)): inactive

SMILES: COC(=O)c1ccccc1O
- odorant receptor agonist call (OR5H1): inactive
- odorant receptor agonist call (OR5H2 [1]): inactive
- odorant receptor agonist call (OR5H2 [2]): inactive
- odorant receptor agonist call (OR5H6 [3]): inactive
- odorant receptor agonist call (OR5H6 [4]): inactive
- odorant receptor agonist call (OR5I1 (Homo sapiens)): inactive
- odorant receptor agonist call (OR5J2 (Homo sapiens)): inactive

SMILES: CC1=NC(C)SC1C (configuration not stated)
- odorant receptor agonist call (OR5H1): inactive
- odorant receptor agonist call (OR5H2 [1]): inactive
- odorant receptor agonist call (OR5H2 [2]): inactive
- odorant receptor agonist call (OR5H6 [3]): inactive
- odorant receptor agonist call (OR5H6 [4]): inactive
- odorant receptor agonist call (OR5I1 (Homo sapiens)): inactive

SMILES: CCC1(O)C2(C)CCC(C2)C1(C)C (configuration not stated)
- odorant receptor agonist call (OR5H1): inactive
- odorant receptor agonist call (OR5H2 [1]): inactive
- odorant receptor agonist call (OR5H2 [2]): inactive
- odorant receptor agonist call (OR5H6 [3]): inactive
- odorant receptor agonist call (OR5H6 [4]): inactive
- odorant receptor agonist call (OR5I1 (Homo sapiens)): inactive
- odorant receptor agonist call (OR5J2 (Homo sapiens)): inactive

SMILES: CC(=O)OCC=C(C)CCC=C(C)C
- odorant receptor agonist call (OR5H1): inactive
- odorant receptor agonist call (OR5H2 [1]): inactive
- odorant receptor agonist call (OR5H2 [2]): inactive
- odorant receptor agonist call (OR5H6 [3]): inactive
- odorant receptor agonist call (OR5H6 [4]): inactive
- odorant receptor agonist call (OR5I1 (Homo sapiens)): inactive
- odorant receptor agonist call (OR5J2 (Homo sapiens)): active

SMILES: O=C1CCCCCCCCCCCC(=O)OCCO1
- odorant receptor agonist call (OR5H1): inactive
- odorant receptor agonist call (OR5H2 [1]): inactive
- odorant receptor agonist call (OR5H2 [2]): inactive
- odorant receptor agonist call (OR5H6 [3]): inactive
- odorant receptor agonist call (OR5H6 [4]): inactive
- odorant receptor agonist call (OR5I1 (Homo sapiens)): inactive
- odorant receptor agonist call (OR5J2 (Homo sapiens)): inactive

SMILES: CC(=O)c1ccccc1
- odorant receptor agonist call (OR5H1): inactive
- odorant receptor agonist call (OR5H2 [1]): inactive
- odorant receptor agonist call (OR5H2 [2]): inactive
- odorant receptor agonist call (OR5H6 [3]): inactive
- odorant receptor agonist call (OR5H6 [4]): inactive
- odorant receptor agonist call (OR5I1 (Homo sapiens)): inactive

SMILES: CCCCCC(C)=O
- odorant receptor agonist call (OR5H1): inactive
- odorant receptor agonist call (OR5H2 [1]): inactive
- odorant receptor agonist call (OR5H2 [2]): inactive
- odorant receptor agonist call (OR5H6 [3]): inactive
- odorant receptor agonist call (OR5H6 [4]): inactive
- odorant receptor agonist call (OR5I1 (Homo sapiens)): inactive

SMILES: c1ccc(Oc2ccccc2)cc1
- odorant receptor agonist call (OR5H1): inactive
- odorant receptor agonist call (OR5H2 [1]): inactive
- odorant receptor agonist call (OR5H2 [2]): inactive
- odorant receptor agonist call (OR5H6 [3]): inactive
- odorant receptor agonist call (OR5H6 [4]): inactive
- odorant receptor agonist call (OR5I1 (Homo sapiens)): inactive
- odorant receptor agonist call (OR5J2 (Homo sapiens)): inactive

SMILES: COC(=O)c1ccccc1
- odorant receptor agonist call (OR5H1): inactive
- odorant receptor agonist call (OR5H2 [1]): active
- odorant receptor agonist call (OR5H2 [2]): inactive
- odorant receptor agonist call (OR5H6 [3]): inactive
- odorant receptor agonist call (OR5H6 [4]): active
- odorant receptor agonist call (OR5I1 (Homo sapiens)): inactive

SMILES: CC(C)CC(=O)O
- odorant receptor agonist call (OR5H1): inactive
- odorant receptor agonist call (OR5H2 [1]): inactive
- odorant receptor agonist call (OR5H2 [2]): inactive
- odorant receptor agonist call (OR5H6 [3]): inactive
- odorant receptor agonist call (OR5H6 [4]): inactive
- odorant receptor agonist call (OR5I1 (Homo sapiens)): inactive
- odorant receptor agonist call (OR5J2 (Homo sapiens)): inactive

SMILES: CCCCCCCCOC(C)=O
- odorant receptor agonist call (OR5H1): inactive
- odorant receptor agonist call (OR5H2 [1]): inactive
- odorant receptor agonist call (OR5H2 [2]): inactive
- odorant receptor agonist call (OR5H6 [3]): inactive
- odorant receptor agonist call (OR5H6 [4]): inactive
- odorant receptor agonist call (OR5I1 (Homo sapiens)): inactive
- odorant receptor agonist call (OR5J2 (Homo sapiens)): inactive
